PubChem BioAssay AID1259405, NCATS | 2018
Shown is an unselected part of about 50,000 deposited reagents. Over the whole deposit, about 4,000 (8%) got an active call. 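Mouse siRNA library applied to hamster cells; one well for each siRNA.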 The numbers tell different reagents against one gene apart. Further read-outs or replicates are left out here.

- Test: 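Silenced genes that increase secreted GFP made by CHO cells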 (primary screen)
- Cells: Chinese hamster CHO-K1 ovary cells with stable secreted eGFP expression
- Reagent: single siRNA against mouse genes, 0.8 pmol siRNA per well (2 µl of 400 nM stock)
- Duration: 3 days
- Measured: 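Per-well intracellular GFP measured by laser scanning cytometry, plus viability from ATP luminescence, each relative to plate median of non-targeting control wells, in %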
- Direction: GFP, % of control: higher = more GFP per well, higher productivity
- Rule for the call: 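Called active when intracellular GFP, relative to negative control, is at or above 120%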

GFP, % of control, by gene and reagent
Pcyt1a (phosphate cytidylyltransferase 1, choline, alpha isoform): #1 109 inactive; #2 112 inactive; #3 118 inactive
Tbcb (tubulin folding cofactor B): #1 73.1 inactive; #2 83.7 inactive; #3 114 inactive
Acta2 (actin alpha 2, smooth muscle, aorta): #1 56.5 inactive; #2 67 inactive
Mlycd (malonyl-CoA decarboxylase): #1 44.2 inactive; #2 69.1 inactive; #3 67.7 inactive
Vps8 (VPS8 CORVET complex subunit): #1 112 inactive; #2 87.8 inactive; #3 72.2 inactive
Has2 (hyaluronan synthase 2): #1 119 inactive; #2 103 inactive; #3 130 active
Capzb (capping actin protein of muscle Z-line subunit beta): #1 84.8 inactive; #2 69.1 inactive; #3 92.1 inactive
Pan2 (PAN2 poly(A) specific ribonuclease subunit): #1 86.7 inactive; #2 113 inactive; #3 87.9 inactive
Or10w1 (olfactory receptor family 10 subfamily W member 1): #1 65.4 inactive; #2 104 inactive; #3 95.7 inactive
Rad23b (RAD23 homolog B, nucleotide excision repair protein): #1 92 inactive; #2 68.4 inactive; #3 75.9 inactive
Thoc3 (THO complex 3): #1 64.1 inactive; #2 99.9 inactive; #3 110 inactive
Lcp1 (lymphocyte cytosolic protein 1): #1 45.7 inactive; #2 42.5 inactive
Map2k4 (mitogen-activated protein kinase kinase 4): #1 68.2 inactive
Abi3 (ABI family member 3): #1 94.4 inactive; #2 102 inactive; #3 93.9 inactive
Abhd14b (abhydrolase domain containing 14b): #1 119 inactive; #2 72.5 inactive; #3 79.3 inactive
Dynlt3 (dynein light chain Tctex-type 3): #1 54.5 inactive; #2 52.5 inactive; #3 87.2 inactive
Myh11 (myosin, heavy polypeptide 11, smooth muscle): #1 82.4 inactive; #2 99.4 inactive
Dhdh (dihydrodiol dehydrogenase): #1 113 inactive; #2 68.5 inactive; #3 72.8 inactive

Hits, of those listed so far:
GFP, % of control, by gene and reagent
Has2 (hyaluronan synthase 2): #3 130 active

Additional results follow.
GFP, % of control, by gene and reagent
Cyp3a11 (cytochrome P450, family 3, subfamily a, polypeptide 11): #1 84.7 inactive; #2 65.9 inactive; #3 56.7 inactive
Stk17b (serine/threonine kinase 17b (apoptosis-inducing)): #1 112 inactive
Basp1 (brain abundant, membrane attached signal protein 1): #1 82.5 inactive; #2 81.5 inactive; #3 94.9 inactive
Lyrm4 (LYR motif containing 4): #1 44.5 inactive; #2 61.5 inactive; #3 61 inactive
Reln (reelin): #1 106 inactive; #2 64.2 inactive; #3 82.3 inactive
Plaat5 (phospholipase A and acyltransferase 5): #1 49.2 inactive; #2 56 inactive; #3 76.7 inactive
Ppp1r42 (protein phosphatase 1, regulatory subunit 42): #1 65.2 inactive; #2 66.8 inactive; #3 68.2 inactive
Sh2d1a (SH2 domain containing 1A): #1 68.8 inactive; #2 79.6 inactive; #3 107 inactive
Slc49a3: #1 73.6 inactive; #2 54.3 inactive; #3 100 inactive
Osr2 (odd-skipped related 2): #1 51.1 inactive; #2 81.3 inactive; #3 0 inactive
Fbxo27 (F-box protein 27): #1 119 inactive; #2 109 inactive
Sall2 (spalt like transcription factor 2): #1 28 inactive; #2 85.7 inactive; #3 134 active
Zfp367 (zinc finger protein 367): #1 29.2 inactive; #2 70.4 inactive; #3 88.1 inactive
Ptges2 (prostaglandin E synthase 2): #1 128 active; #2 71.4 inactive; #3 82.1 inactive
Rnf14 (ring finger protein 14): #1 48.9 inactive; #2 41.9 inactive; #3 101 inactive
Klhl9 (kelch-like 9): #1 67 inactive; #2 134 active; #3 97 inactive
Zfp513 (zinc finger protein 513): #1 55.1 inactive; #2 80.6 inactive; #3 83.4 inactive
Fut2 (fucosyltransferase 2): #1 124 active; #2 89.6 inactive; #3 154 active
Klk9 (kallikrein related-peptidase 9): #1 82.9 inactive; #2 75.8 inactive; #3 112 inactive
Glyat (glycine-N-acyltransferase): #1 43.6 inactive; #2 71.6 inactive; #3 87.2 inactive
Terf2 (telomeric repeat binding factor 2): #1 93 inactive; #2 82.7 inactive
